Counter-ions that a name gives are not always drawn. The list shows a part of the results. Hit calls seldom repeat between salt and free forms of one compound.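 Kinases were expressed as nanoluciferase fusions in K562 cells and luminescence was read every 4 h between 2 and 18 h as percent of control, DMSO set to 100% and a positive control to 0%. A time point counts as decreased when the signal drops significantly (2 sigma). The hit call is the authors' own, does not follow from the count of time points alone, and its rule is not shown.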

By UniProt entry, the sequences of proteins in these tests, tags left out. Where a name states a change or a piece, a line headed by the entry shows the natural chain unless it says otherwise.
UniProt P06241, whole entry, looked up: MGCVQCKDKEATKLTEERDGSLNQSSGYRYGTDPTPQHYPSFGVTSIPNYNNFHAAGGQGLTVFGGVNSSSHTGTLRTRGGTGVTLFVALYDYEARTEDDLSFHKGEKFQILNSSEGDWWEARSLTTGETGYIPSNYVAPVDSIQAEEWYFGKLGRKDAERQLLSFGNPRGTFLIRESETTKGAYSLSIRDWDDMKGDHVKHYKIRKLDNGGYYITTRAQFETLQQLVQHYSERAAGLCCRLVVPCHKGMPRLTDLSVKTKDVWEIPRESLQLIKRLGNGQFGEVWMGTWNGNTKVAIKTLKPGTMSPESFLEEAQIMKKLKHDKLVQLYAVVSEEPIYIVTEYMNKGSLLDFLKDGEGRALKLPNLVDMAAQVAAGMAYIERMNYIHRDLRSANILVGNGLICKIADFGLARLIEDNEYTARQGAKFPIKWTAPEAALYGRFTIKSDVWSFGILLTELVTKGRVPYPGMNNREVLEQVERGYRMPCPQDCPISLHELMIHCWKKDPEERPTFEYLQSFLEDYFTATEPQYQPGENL
UniProt P49840: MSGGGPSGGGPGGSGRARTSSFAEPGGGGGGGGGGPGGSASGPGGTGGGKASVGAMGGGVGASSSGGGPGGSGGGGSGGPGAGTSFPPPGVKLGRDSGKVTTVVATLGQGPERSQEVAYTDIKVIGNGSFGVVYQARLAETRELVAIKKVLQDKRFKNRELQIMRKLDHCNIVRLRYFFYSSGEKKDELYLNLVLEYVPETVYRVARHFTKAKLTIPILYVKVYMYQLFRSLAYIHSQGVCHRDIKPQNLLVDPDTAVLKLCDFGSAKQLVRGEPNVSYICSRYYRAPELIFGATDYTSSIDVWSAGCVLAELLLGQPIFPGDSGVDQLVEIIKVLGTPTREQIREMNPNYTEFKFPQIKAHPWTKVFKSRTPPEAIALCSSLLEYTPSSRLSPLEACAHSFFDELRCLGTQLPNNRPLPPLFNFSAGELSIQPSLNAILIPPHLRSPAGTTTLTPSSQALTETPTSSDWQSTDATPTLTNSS

The first experiment concerns the target FYN (UniProt P06241). Briefly: kinase-Nluc reporter destabilization hit call (1 = scored as downregulated) (binary); higher = compound decreases kinase abundance. To be noted: K562; 2-18 h.
As to `N#CC(C#N)=Cc1ccc([N+](=O)[O-])c(O)c1` (10 µM), the “kinase-Nluc reporter destabilization hit call” value was inactive: 0.
As to `C[C@H](CCC(=O)O)C[C@H](C)C[C@H](C)C(=O)/C=C(\O)[C@H](C)C[C@H](C)C/C=C/[C@@H](C)[C@@H](O)[C@@H](C)[C@@H](O)C[C@@H]1CC[C@@](C)([C@H]2CC[C@@](C)([C@@H](C)O)O2)O1` [Ionomycin (calcium)] (2.5 µM), the “kinase-Nluc reporter destabilization hit call” value was inactive: 0.
Same read-out and setting: as for `CC1C(=O)OC2C(O)C34C5OC(=O)C3(OC3OC(=O)C(O)C34C(C(C)(C)C)C5O)C12O` (centres undefined) [Ginkgolide C] (10 µM), the figure is inactive: 0; as for `Cn1cc(C2=C(c3cn(C4CCN(Cc5ccccn5)CC4)c4ccccc34)C(=O)NC2=O)c2ccccc21` [Enzastaurin] (10 µM), inactive: 0; as for `O=c1[nH]c2ccccc2n1C1CCN(Cc2ccc(-c3[nH]c4cc5ncnc5cc4nc3-c3ccccc3)cc2)CC1` [AKT inhibitor VIII] (2.5 µM), inactive: 0.
Still for that read-out and setting: as for `CCN1CCN(C(=O)Cc2ccc(Nc3ncc(F)c(Nc4ccc(C(=O)Nc5ccccc5Cl)cc4)n3)cc2)CC1` (2.5 µM), the figure is inactive: 0; as for `C=CC(=O)N[C@H]1C=C(C)c2c(-c3cnc4ccccc4c3)c3c(N)ncnc3n2C1` (10 µM), inactive: 0.
Still for that read-out and setting: as for `CC(C)(C)c1cc(C=C(C#N)C#N)cc(Br)c1O` (2.5 µM), the figure is inactive: 0; as for `CCCCNc1nc(N)c2[nH]c(=O)n(Cc3ccc(C)nc3)c2n1` (10 µM), inactive: 0.
Consider `C=CC(=O)Nc1ccc2[nH]c(=O)n(C3CCN(Cc4ccc(-c5nc6cc[nH]c(=O)c6cc5-c5ccccc5)cc4)CC3)c2c1` [Borussertib] (10 µM), for which the “kinase-Nluc reporter destabilization hit call” value is inactive: 0.
Still for that read-out and setting: as for `COc1ccc(N(C(=O)Oc2c(C)cccc2C)c2ccnc(Nc3ccc(N4CCN(C)CC4)cc3)n2)c(OC)c1` (2.5 µM), the figure is inactive: 0; as for `COc1ccc2c(c1)[nH]c1c(C)nccc12` [Harmine] (10 µM), inactive: 0.
On the same count and under the same terms, as for `O=c1cc(O)c2ccccc2o1` [4-Hydroxycoumarin] (10 µM), the figure is inactive: 0.
Regarding `CC(=O)c1c(O)c(C)c(O)c(Cc2c(O)c3c(c(C(=O)/C=C/c4ccccc4)c2O)OC(C)(C)C=C3)c1O` [Rottlerin] (2 µM), the “kinase-Nluc reporter destabilization hit call” value was inactive: 0.
The same measure, in the same setting: as for `N#CC(C#N)=Cc1ccc(O)c(O)c1` [Tyrphostin 23] (10 µM), the figure is inactive: 0.
Turning to `C/C(O)=C(\C#N)C(=O)Nc1cc(Br)ccc1Br` (10 µM), the “kinase-Nluc reporter destabilization hit call” value is inactive: 0.
Regarding `Cc1ccccc1-n1c(Cn2ncc3c(N)ncnc32)nc2cccc(C)c2c1=O` (10 µM), the “kinase-Nluc reporter destabilization hit call” value is inactive: 0.
The same measure, in the same setting: as for `COc1cc2c(cc1F)C(c1ccccc1Cl)=Nc1c(n[nH]c1C)N2` (0.5 µM), the figure is inactive: 0.
The same measure, in the same setting: as for `COc1ccc2c(c1)/C(=C/c1cnc[nH]1)C(=O)N2` (2.5 µM), the figure is inactive: 0.
Consider `O=[N+]([O-])/C=C/c1ccc2c(c1)OCO2` (2.5 µM), for which the “kinase-Nluc reporter destabilization hit call” value was inactive: 0.

A further experiment deals with GSK3A (UniProt P49840). The experiment is described as above. Conditions: K562; 2-18 h.
On to `CC1=C[C@]23C(=O)[C@@H](C=C(CO)[C@@H](O)[C@]2(O)[C@H]1O)[C@H]1[C@@H](C[C@H]3C)C1(C)C` [Ingenol] (10 µM), for which the “kinase-Nluc reporter destabilization hit call” value was inactive: 0.
Consider `C=C[C@H]1CN2CC[C@]3(C(=O)Nc4ccccc43)[C@@H]2C[C@@H]1/C(=C\OC)C(=O)OC` [Corynoxeine] (2 µM), for which the “kinase-Nluc reporter destabilization hit call” value was inactive: 0.
Regarding `O=C(O)c1sc2cc(Cl)ccc2c1Cl` (10 µM), the “kinase-Nluc reporter destabilization hit call” value was inactive: 0.
Regarding `C[C@H]1CC[C@]2(NC1)O[C@H]1C[C@H]3[C@@H]4CC[C@H]5C[C@@H](O)CC[C@]5(C)[C@H]4CC[C@]3(C)[C@H]1[C@@H]2C` [Tomatidine (hydrochloride)] (10 µM), the “kinase-Nluc reporter destabilization hit call” value was inactive: 0.
As for `O=C1C=CC[C@@H]2[C@H]3CCCN4CCC[C@@H](CN12)[C@@H]34` [Sophocarpine (monohydrate)] (2.5 µM), the “kinase-Nluc reporter destabilization hit call” value is inactive: 0.
On the same count and under the same terms, for `Cc1n[nH]cc1-c1cc2nc([C@@H]3CC4CCN3CC4)[nH]c(=O)c2s1` [Simurosertib] (2.5 µM) the value was inactive: 0; for `O=C(N[C@@H](COc1ccc2[nH]c(=O)[nH]c2c1)c1ccccc1)c1cccn(Cc2ccc(F)c(F)c2)c1=O` (2.5 µM), inactive: 0; for `O=C(/C=C/c1ccccc1)OC[C@H]1O[C@@H](O[C@@H]2OC=C[C@H]3[C@H](O)[C@@H]4O[C@]4(CO)[C@@H]23)[C@H](O)[C@@H](O)[C@@H]1O` [Picroside I] (10 µM), inactive: 0.
The same measure, in the same setting: for `C[C@@H]1CC[C@H]2[C@@H](C)C(=O)O[C@@H]3O[C@@]4(C)CC[C@@H]1[C@]32OO4` [Artemisinin] (10 µM) the value was inactive: 0; for `N#CC(C#N)=Cc1ccc([N+](=O)[O-])c(O)c1` (10 µM), inactive: 0.
The same measure, in the same setting: as for `C[C@H](CCC(=O)O)C[C@H](C)C[C@H](C)C(=O)/C=C(\O)[C@H](C)C[C@H](C)C/C=C/[C@@H](C)[C@@H](O)[C@@H](C)[C@@H](O)C[C@@H]1CC[C@@](C)([C@H]2CC[C@@](C)([C@@H](C)O)O2)O1` [Ionomycin (calcium)] (2.5 µM), the figure is inactive: 0; as for `CC1C(=O)OC2C(O)C34C5OC(=O)C3(OC3OC(=O)C(O)C34C(C(C)(C)C)C5O)C12O` (centres undefined) [Ginkgolide C] (10 µM), inactive: 0; as for `Cn1cc(C2=C(c3cn(C4CCN(Cc5ccccn5)CC4)c4ccccc34)C(=O)NC2=O)c2ccccc21` [Enzastaurin] (10 µM), inactive: 0.
Take `O=c1[nH]c2ccccc2n1C1CCN(Cc2ccc(-c3[nH]c4cc5ncnc5cc4nc3-c3ccccc3)cc2)CC1` [AKT inhibitor VIII] (2.5 µM): the “kinase-Nluc reporter destabilization hit call” value was inactive: 0.
As for `CCN1CCN(C(=O)Cc2ccc(Nc3ncc(F)c(Nc4ccc(C(=O)Nc5ccccc5Cl)cc4)n3)cc2)CC1` (2.5 µM), the “kinase-Nluc reporter destabilization hit call” value is inactive: 0.
On the same count and under the same terms, as for `C=CC(=O)N[C@H]1C=C(C)c2c(-c3cnc4ccccc4c3)c3c(N)ncnc3n2C1` (10 µM), the figure is inactive: 0; as for `CC(C)(C)c1cc(C=C(C#N)C#N)cc(Br)c1O` (2.5 µM), inactive: 0.
For `CCCCNc1nc(N)c2[nH]c(=O)n(Cc3ccc(C)nc3)c2n1` (10 µM), the “kinase-Nluc reporter destabilization hit call” value is inactive: 0.
Turning to `C=CC(=O)Nc1ccc2[nH]c(=O)n(C3CCN(Cc4ccc(-c5nc6cc[nH]c(=O)c6cc5-c5ccccc5)cc4)CC3)c2c1` [Borussertib] (10 µM), the “kinase-Nluc reporter destabilization hit call” value is inactive: 0.
Still for that read-out and setting: as for `COc1ccc(N(C(=O)Oc2c(C)cccc2C)c2ccnc(Nc3ccc(N4CCN(C)CC4)cc3)n2)c(OC)c1` (2.5 µM), the figure is inactive: 0; as for `COc1ccc2c(c1)[nH]c1c(C)nccc12` [Harmine] (10 µM), inactive: 0; as for `O=c1cc(O)c2ccccc2o1` [4-Hydroxycoumarin] (10 µM), inactive: 0.
For `CC(=O)c1c(O)c(C)c(O)c(Cc2c(O)c3c(c(C(=O)/C=C/c4ccccc4)c2O)OC(C)(C)C=C3)c1O` [Rottlerin] (2 µM), the “kinase-Nluc reporter destabilization hit call” value is inactive: 0.
For the compound `N#CC(C#N)=Cc1ccc(O)c(O)c1` [Tyrphostin 23] (10 µM), the “kinase-Nluc reporter destabilization hit call” value was inactive: 0.
On the same count and under the same terms, for `C/C(O)=C(\C#N)C(=O)Nc1cc(Br)ccc1Br` (10 µM) the value was inactive: 0; for `Cc1ccccc1-n1c(Cn2ncc3c(N)ncnc32)nc2cccc(C)c2c1=O` (10 µM), inactive: 0; for `COc1cc2c(cc1F)C(c1ccccc1Cl)=Nc1c(n[nH]c1C)N2` (0.5 µM), inactive: 0.
As to `COc1ccc2c(c1)/C(=C/c1cnc[nH]1)C(=O)N2` (2.5 µM), the “kinase-Nluc reporter destabilization hit call” value was inactive: 0.
Still for that read-out and setting: for `O=[N+]([O-])/C=C/c1ccc2c(c1)OCO2` (2.5 µM) the value was inactive: 0.

For the origin of these results see the supplement of paper PMC12823440, “Inhibitors supercharge kinase turnover through native proteolytic circuits” (Nature, 2025).
